According to PubChem BioAssay AID720504 (National Center for Advancing Translational Sciences (NCATS), 2013):
Where “and” joins values, the source holds several entries; their conditions need not be identical. Equal entries are not always repeated. Hit rate of the full screen: of about 360,000 compounds, about 10,000 (2.8%) were called active. Inconclusive means that the source gave no clear call. Such entries were picked first, then a sample of the others. The call rests on the fitted dose curve; in most records, active means well fitted inhibition curve with a large enough effect; inconclusive means small, poorly fitted or top-dose-only effect; inactive means flat fitted curve, though single readings scatter. A potency beside an inconclusive call is a rough fit, not a confirmed value.

The chains behind the UniProt entries cited, without tags or fusion partners.
UniProt P53350, whole entry, looked up: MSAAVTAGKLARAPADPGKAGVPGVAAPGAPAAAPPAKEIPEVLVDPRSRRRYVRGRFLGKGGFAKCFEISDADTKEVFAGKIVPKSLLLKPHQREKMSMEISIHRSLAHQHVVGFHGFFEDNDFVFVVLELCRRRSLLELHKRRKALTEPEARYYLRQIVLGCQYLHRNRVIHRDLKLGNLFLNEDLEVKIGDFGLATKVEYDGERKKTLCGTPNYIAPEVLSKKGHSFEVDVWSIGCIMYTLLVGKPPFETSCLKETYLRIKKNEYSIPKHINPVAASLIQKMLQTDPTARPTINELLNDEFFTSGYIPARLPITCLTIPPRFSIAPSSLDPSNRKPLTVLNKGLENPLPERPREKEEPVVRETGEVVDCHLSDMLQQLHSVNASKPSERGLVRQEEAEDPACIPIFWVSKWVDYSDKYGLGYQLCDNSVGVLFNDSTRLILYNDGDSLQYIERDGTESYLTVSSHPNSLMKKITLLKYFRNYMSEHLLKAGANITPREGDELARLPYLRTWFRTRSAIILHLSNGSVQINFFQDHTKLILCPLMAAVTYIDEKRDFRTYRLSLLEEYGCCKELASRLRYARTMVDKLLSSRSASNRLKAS

Target: Serine/threonine-protein kinase PLK1 (Homo sapiens) (UniProt P53350)
Test: qHTS for Inhibitors of PLK1-PDB (polo-like kinase 1 - polo-box domain): Primary Screen; further: nearly all actives have a fitted effect of over 65% in size; on max response, negative = inhibition: series mostly up to about 57 µM
Details: Plk1 PBD binding of FITC phosphopeptide, fluorescence polarization
On the % scale 0 is the no-effect control and ±100 the full control effect; potency means the concentration at half of the fitted maximal effect.

Row | SMILES | max response, negative = inhibition | Potency
1 | O=C(CCCn1c(=O)[nH]c2ccsc2c1=O)N1CCCCC1 | inactive: -8.44% | –
2 | COC(=O)CN1C(=O)C(C)(C)Oc2ccc(C(=O)NC3CCCC3)cc21 | – | inconclusive: 37.7 µM [inhibitor, single point]
3 | COc1ccc(-c2ccc(C(=S)N3CCN(C(C)=O)CC3)o2)cc1 | – | active: 23.8 µM
4 | Nc1cc2c3c(cccc3c1)C(=O)N(CCN1CCCC1)C2=O | – | inconclusive: 29.9 µM [inhibitor, partial curve]
5 | O=C(COc1ccccc1/C=C1\SC(=O)NC1=O)Nc1ccccc1 | – | inconclusive: 26.7 µM [inhibitor, partial curve, poor fit]
6 | CCCOc1ccc2ccccc2c1/C=C1\SC(=O)NC1=O | – | inconclusive: 29.9 µM [inhibitor, single point]
7 | CC(C)(C)NC(=O)C(=O)NNC(=O)c1cccc(F)c1 | inactive: -14.3% | –
8 | CCOC(=O)c1c(/N=C/N(C)C)sc(C=O)c1-c1ccccc1 | inactive: -3.08% | –
9 | O=C1NC(c2cccs2)Nc2sc3c(c21)CCCC3 (stereo not given) | – | inconclusive: 26.7 µM [inhibitor, partial curve]
10 | O=[N+]([O-])c1cc(F)c2cccnc2c1O | – | inconclusive: 23.8 µM [inhibitor, single point]
11 | COc1ccccc1CNC(=O)C(C)Sc1ccc(C)cc1 (stereo not given) | – | active: 21.2 µM
12 | CCN(CC)S(=O)(=O)c1ccc(-c2cn3cc(Cl)ccc3n2)cc1 | – | active: 11.9 µM
13 | COc1ccc(-c2csc(NC3OC(=O)c4ccccc43)n2)cc1 (stereo not given) | – | inconclusive: 21.2 µM [inhibitor, partial curve]
14 | CSc1ccccc1NC(=O)c1cc2ncc(Br)cn2n1 | – | inconclusive: 7.52 µM [inhibitor, full curve]
15 | COCCCNC(=O)c1ccc2nc([C@@H]3O[C@H](CO)[C@H](O)[C@H](O)[C@H]3O)[nH]c2c1 | inactive: -0.921% | –
16 | CN1CCN(C(=O)C2=C[C@H](c3ccc4c(c3)OCO4)C[C@H](OCCCCO)O2)CC1 | – | inconclusive: 42.3 µM [inhibitor, partial curve]
17 | N#Cc1ccc(CSc2nnc(NC(=O)c3ccc4ncsc4c3)s2)cc1 | – | inconclusive: 16.8 µM [inhibitor, partial curve]
18 | C1CCC(c2nn3c(-c4n[nH]c5c4CCC5)nnc3s2)CC1 | – | inconclusive: 21.2 µM [inhibitor, single point]
19 | CCOC(=O)c1sc(NC(=O)c2ccco2)c(C#N)c1C | – | inconclusive: 26.7 µM [inhibitor, single point]
20 | NC(=O)C1CCCN(C(=S)NCc2ccc3c(c2)OCO3)C1 (stereo not given) | – | inconclusive: 33.6 µM [inhibitor, single point]
21 | COc1ccc(C(=O)/C=C2\C(=O)Nc3ccc(Br)cc32)cc1 | – | inconclusive: 3.36 µM [inhibitor, partial curve]
22 | O=C(/C=C/c1ccco1)NC(=S)Nc1ccccn1 | – | inconclusive: 26.7 µM [inhibitor, partial curve]
23 | COc1ccc(OC)c(C2=NOC(C(=O)Nc3cc(C)on3)C2)c1 (stereo not given) | – | inconclusive: 23.8 µM [inhibitor, single point]
24 | Cc1cccc(N=Nc2cnc(N)s2)c1 | – | inconclusive: 16.8 µM [inhibitor, partial curve]

Of the compounds above, four have four or more nitrogen atoms.
Row | SMILES | max response, negative = inhibition | Potency
14 | CSc1ccccc1NC(=O)c1cc2ncc(Br)cn2n1 | – | inconclusive: 7.52 µM [inhibitor, full curve]
17 | N#Cc1ccc(CSc2nnc(NC(=O)c3ccc4ncsc4c3)s2)cc1 | – | inconclusive: 16.8 µM [inhibitor, partial curve]
18 | C1CCC(c2nn3c(-c4n[nH]c5c4CCC5)nnc3s2)CC1 | – | inconclusive: 21.2 µM [inhibitor, single point]
24 | Cc1cccc(N=Nc2cnc(N)s2)c1 | – | inconclusive: 16.8 µM [inhibitor, partial curve]

(listing goes on)

Row | SMILES | max response, negative = inhibition | Potency
25 | O=C(Nc1sccc1C(=O)N1CCOCC1)c1cccnc1 | – | inconclusive: 16.8 µM [inhibitor, partial curve]
26 | CCCCCC(O)CCCC(=O)O (stereo not given) | inactive: -10.2% | –
27 | Cc1ccc2c(c1)NC(=O)C(CC(=O)NCCCN1CCN(c3cc(C)ccc3C)CC1)O2 (stereo not given) | – | inconclusive: 23.8 µM [inhibitor, partial curve]
28 | O=C1NNC(c2ccccc2)=N/C1=C\c1ccco1 | inconclusive: -30.6% [inhibitor] | –
29 | COc1ccc([N+](=O)[O-])c(S(=O)(=O)c2ccc(Cl)cc2)n1 | – | active: 2.99 µM
30 | NS(=O)(=O)c1ccc(NC(=O)CSc2ccccn2)cc1 | inconclusive: -34.9% [inhibitor] | –
31 | COc1ccc(C/C(C)=N/NC(=S)Nc2ccccc2)cc1 | – | inconclusive: 10.6 µM [inhibitor, partial curve]
32 | Cn1cc(C(=O)N2CCc3ccccc32)cn1 | inactive: -5.1% | –
33 | CCc1ccc(C2C(C#N)=C(N)OC3=C2C(=O)CCC3)s1 (stereo not given) | – | inconclusive: 8.44 µM [inhibitor, partial curve]
34 | COc1cc(C(C2C(=O)CC(C)(C)CC2=O)C2C(=O)CC(C)(C)CC2=O)ccc1O | – | inconclusive: 6.7 µM [inhibitor, partial curve]
35 | O=C(N/N=C/c1ccc(N2CCOCC2)cc1)c1ccc(NS(=O)(=O)c2cccs2)cc1 | inconclusive: -33.2% [inhibitor] | –
36 | Cc1ccc(C(=O)Oc2ccc(Br)cc2C(=S)N2CCOCC2)cc1 | – | inconclusive: 11.9 µM [inhibitor, partial curve]
37 | COc1ccc(NS(=O)(=O)c2cc([N+](=O)[O-])ccc2NN=Cc2ccccc2OCC(=O)O)cc1 | – | inconclusive: 37.7 µM [inhibitor, single point]
38 | O=C(Nc1ccccc1)c1ccc(Br)c(S(=O)(=O)Nc2ccccn2)c1 | – | inconclusive: 4.74 µM [inhibitor, partial curve]
39 | CCCC(O)(CCC)C(=O)NN(C(=O)CCl)c1ccccc1 | inactive: -15.2% | –
40 | Clc1ccc(SCc2csc(N3CCOCC3)n2)cc1 | – | inconclusive: 26.7 µM [inhibitor, partial curve]
41 | COc1cc(CNc2ccccc2SC)ccc1O | – | inconclusive: 29.9 µM [inhibitor, partial curve]
42 | CCO[C@H]1OC(C(=O)N2CCCCCCC2)=C[C@@H](C2CCCCC2)[C@@H]1CCCO | inactive: -8.19% | –
43 | CCOC(=O)C1(CC2CCCCO2)CCN(C(=O)Nc2cccc(SC)c2)CC1 (stereo not given) | – | active: 21.2 µM
44 | COC1=C(Br)C(=O)c2nc(C)ccc2C1=O | – | inconclusive: 1.68 µM [inhibitor, full curve]
45 | COC(=O)c1cccc(C23CC4(C2)[C@H](CN(Cc2ccc(-c5ccccc5)cc2)[C@@H]4c2ccccc2)C3c2ccccc2)c1 (stereo not given in full) | inactive: -8.09% and inactive: -2.82% | –
46 | O=C(/C=C/c1ccc(Br)o1)Nc1nccs1 | – | active: 21.2 µM
47 | O=C(O)c1ccccc1N/N=C/c1cc(Br)cc(Br)c1O | – | active: 21.2 µM
48 | O=C(O)CSc1nnc(CNc2ccc(Cl)cc2)n1Cc1ccccc1 | – | active: 26.7 µM

Row | SMILES | max response, negative = inhibition | Potency
49 | CCCS(=O)(=O)c1nc(S(=O)(=O)c2ccc(C)cc2)c(N2CCC(C(N)=O)CC2)s1 | inactive: 2.34% | –
50 | CCc1cc(=O)oc2cc(C)cc(OC(C)C(=O)NCCCn3ccnc3)c12 (stereo not given) | – | inconclusive: 21.2 µM [inhibitor, partial curve]
51 | CCOc1ccc(/C=C2/SC(=S)N(C(C(=O)O)c3ccccc3)C2=O)cc1OCC (stereo not given) | – | inconclusive: 23.8 µM [inhibitor, single point]
52 | COc1cc(C2/C(=C(\O)c3cc(C)ccc3C)C(=O)C(=O)N2CCN(C)C)ccc1O (stereo not given) | inactive: -12.1% | –
53 | Clc1ccccc1CSc1nnc(Cn2cnc3ccccc32)n1-c1ccccc1 | inactive: -6.12% | –
54 | O=S(=O)(Nc1cccnc1)c1ccc(C2CCCCC2)cc1 | – | inconclusive: 37.7 µM [inhibitor, single point]
55 | S=C(NCc1ccco1)N1CCC(c2nc3ccccc3o2)CC1 | inactive: 13.1% | –
56 | CCC(CC)c1nnc(NC(=O)c2cc(C(=O)OC)cc([N+](=O)[O-])c2)s1 | – | active: 9.47 µM
57 | CCCCCCCCCCCCN1[C@@H](CC(=O)O)c2cc(F)ccc2S1(=O)=O | – | inconclusive: 26.7 µM [inhibitor, single point]
58 | COC(=O)c1sc2cc(=O)n(-c3cccc(C(F)(F)F)c3)nc2c1O | – | inconclusive: 21.2 µM [inhibitor, single point]
59 | CCN1CCCC1CNS(=O)(=O)c1c(C)cc(C)cc1C (stereo not given) | inconclusive: -34.2% [inhibitor] | –
60 | O=C1S/C(=C\c2ccc(O)c([N+](=O)[O-])c2)C(=O)N1c1ccccc1Cl | – | inconclusive: 26.7 µM [inhibitor, single point]
61 | COc1ccc(Nc2ccc(Nc3ccc(OC)cc3)nn2)cc1 | – | inconclusive: 8.44 µM [inhibitor, single point]
62 | Cn1c2c(c(=O)n(C)c1=O)C1(C(=O)Nc3ccccc31)C(C#N)=C(N)O2 (stereo not given) | – | inconclusive: 15 µM [inhibitor, partial curve]
63 | CC(=O)Nc1ccc(NC(=O)C2(C)Cc3c(-c4cccc(C(F)(F)F)c4)ccnc3O2)cc1 (stereo not given) | inactive: 5.27% | –
64 | CCOC(=O)c1ccc(NC(=O)Cn2nnc(-c3ccccc3)n2)cc1 | – | inconclusive: 26.7 µM [inhibitor, partial curve]
65 | CC(=O)N1CCN(S(=O)(=O)c2ccc(S(=O)(=O)NC3CCCCC3)cc2)CC1 | inactive: -10% | –
66 | O=C(N/N=C/c1coc2ccc(Cl)cc2c1=O)c1ccc(O)cc1 | inconclusive: -36.1% [inhibitor] | –
67 | COc1ccc(NC(=S)NNC(=O)CNc2ccc(Cl)cc2)cc1 | – | active: 26.7 µM
68 | Cc1ccc(S(=O)(=O)N2[C@@H](c3ccc(Cl)cc3)C(C(=O)O)=CC[C@H]2c2cccc(C)c2)cc1 | – | inconclusive: 23.8 µM [inhibitor, single point]
69 | CCc1ccccc1S(=O)(=O)Cc1ccc(C(=O)NCCc2ccccc2)o1 | – | active: 26.7 µM
70 | COc1ccc(C(=O)N2CCCC(c3ccccc3)C2)cc1 (stereo not given) | – | inconclusive: 29.9 µM [inhibitor, partial curve]
